Reference: PubChem BioAssay AID602313 (National Center for Advancing Translational Sciences (NCATS), 2012)
Hit rate of the full screen: of about 390,000 compounds, about 760 (0.19%) were called active. This list was built around the results that the source calls inconclusive (neither active nor inactive); the mix of calls is not that of the screen. The call rests on the fitted dose curve; in most records, active means well fitted inhibition curve with a large enough effect; inconclusive means small, poorly fitted or top-dose-only effect; inactive means flat fitted curve, though single readings scatter. Potencies beside an inconclusive call are fits to weak or partial responses and may not hold up.

Experiment: qHTS for Inhibitors of Vif-A3F Interactions: qHTS; further: nearly all actives have a fitted effect of over 65% in size
Details: HeLa A3F-eYFP + Vif (tagged APOBEC3F with the HIV-1 protein that degrades it), YFP fluorescence increase; series mostly up to 46.1 µM
How it was run: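 Fluorescence increase (Ex 488/Em 500-530) after overnight compound treatment at 37 deg C flags inhibition of Vif-driven A3F-eYFP loss in stable HeLa A3F-eYFP/Vif cells seeded overnight beforehand.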
Potency means the concentration at half of the fitted maximal effect.

| Structure (SMILES) | Potency |
| --- | --- |
| Cc1ccc(C(=O)CSc2nc3cccnc3n2C)cc1 | inactive |
| CCOC(=O)c1cc2sccc2n1CC(=O)N1c2ccccc2CC1C (stereo not given) | inconclusive: 2.51 µM [inhibitor, partial curve, poor fit] |
| Cc1nc2nc(NC(=O)CC(C)C)[nH]n2c(=O)c1Cc1ccccc1 | inactive |
| Cc1ccc(C(=O)/C=C/N(C)C)o1 | inconclusive: 15.8 µM [inhibitor, single point] |
| Cc1cccc(NNC(=S)Nc2c(C)cccc2C)c1 | inconclusive: 11.2 µM [inhibitor, partial curve, poor fit] |
| Cc1cc(NC(=O)c2ccc([N+](=O)[O-])cc2)n(CCC#N)n1 | inconclusive: 3.55 µM [inhibitor, single point] |
| COc1ccc(N(C(=O)CCl)C(C(=O)NC2CCCCC2)c2cccnc2)cc1 (stereo not given) | inactive |
| CCOC(=O)CC(=O)CSc1nc(-c2ccc3c(c2)OCO3)cc(C(F)(F)F)c1C#N | inconclusive: 35.5 µM [inhibitor, single point] |
| COc1ccc(NC(=O)NC2(C(=O)N3CCCC(C)C3)CCCCC2)cc1 (stereo not given) | inconclusive: 5.62 µM [inhibitor, single point] |
| CCc1ccc(NC(=O)CCNS(=O)(=O)c2ccc3c(c2)oc(=O)n3C)cc1 | inactive |
| COc1ccc(NC(=O)N2CCOc3ccc(Cl)cc32)cc1 | inactive |
| C/C(=N\N1CCN(c2ccccc2)CC1)c1ccco1 | inconclusive: 6.31 µM [inhibitor, single point] |
| Cc1cc(C)c(C(=O)OCC(=O)Nc2cccc(S(=O)(=O)N3CCCCC3)c2)c(C)c1 | inactive |
| CCN1CCN(CCNC(=O)c2ccc3c(c2)NC(=O)/C(=C\c2cccc(Cl)c2)S3)CC1 | inconclusive: 6.31 µM [inhibitor, single point] |
| CC(NC(=S)Nc1cccc(C(F)(F)F)c1)C(C)(C)C (stereo not given) | active: 31.6 µM |
| O=C(NN1C(=O)/C(=C/c2cccc(O)c2)SC1=S)c1ccccc1O | inconclusive: 35.5 µM [inhibitor, single point] |
| COc1cc2c3nnc(-c4ccc(F)cc4)c-3cn(Cc3ccccc3)c2cc1OC | inconclusive: 7.08 µM [inhibitor, partial curve, poor fit] |
| CCCNCC1C(Oc2ccc(Cl)cc2)C(=O)N1c1ccccc1C (stereo not given) | inconclusive: 6.31 µM [inhibitor, single point] |
| O=C(CN1CCOCC1)NN1CC(=O)N(c2ccc(Cl)cc2)CC1=O | inconclusive: 28.2 µM [inhibitor, single point] |
| O=C(NC1=NCCS1)C1CCN(S(=O)(=O)c2cc([N+](=O)[O-])ccc2Cl)CC1 | inconclusive: 35.5 µM [inhibitor, single point] |
| NC(=S)N=Nc1c(O)n(CC(=O)Nc2ccccc2)c2ccccc12 | inconclusive: 15.8 µM [inhibitor, single point] |
| CCc1ccccc1NC(=O)N1CC(C)Sc2ccccc21 (stereo not given) | inactive |
| O=C(O)c1cccc(NC2=C(Cl)C(=O)c3ccccc3C2=O)c1 | inactive |

| Structure (SMILES) | Potency |
| --- | --- |
| Cc1ccccc1C(=O)Nc1ccccc1-c1nnn(CC(=O)Nc2ccc3c(c2)OCCO3)n1 | inconclusive: 14.1 µM [inhibitor, single point] |
| Fc1ccc(-c2csc(=S)[nH]2)cc1 | inconclusive: 25.1 µM [inhibitor, partial curve, poor fit] |
| Nc1ccc(N2CCCCC2)cc1N1CCCCC1 | inconclusive: 25.1 µM [inhibitor, single point] |
| CCCC(=O)NC(=S)Nc1ccc(N2CCOCC2)c(Cl)c1 | inconclusive: 35.5 µM [inhibitor, single point] |
| CCOC(=O)c1c(C)[nH]c(N=Nc2ccccc2Cl)c1C | inconclusive: 15.8 µM [inhibitor, single point] |
| CCOC(=S)SCc1cn2ccc(C)cc2n1 | inconclusive: 35.5 µM [inhibitor, single point] |
| Cn1cc(C(=O)C(=O)N2CCCCC2)c2ccccc21 | inconclusive: 35.5 µM [inhibitor, single point] |
| Cc1cnc(C(=O)Oc2ccc(-c3ccccc3)cc2)cn1 | inconclusive: 10 µM [inhibitor, partial curve, poor fit] |
| COc1ccc2[nH]cc(/C=C/C(=O)c3ccccc3)c2c1 | inconclusive: 25.1 µM [inhibitor, single point] |
| O=C(O)/C=C/c1cn(Cc2ccccc2Cl)nc1-c1ccccc1 | inactive |
| Cc1ccc(NC(=O)CO/N=C/c2ccc(N(C)C)cc2)cc1 | active: 25.1 µM |
| COc1ccc(S(=O)(=O)NCC2CCCO2)cc1NC(=O)c1ccccc1F (stereo not given) | inconclusive: 6.31 µM [inhibitor, partial curve, poor fit] |
| Cc1cc(O)c(C(=O)/C=C/c2ccc(Cl)cc2)c(=O)o1 | inconclusive: 35.5 µM [inhibitor, single point] |
| COc1ccc2nc(SC)c(C#N)cc2c1 | inactive |
| CC[n+]1c(/C=C/Nc2ccccc2)oc2ccccc21 | active: 11.2 µM |
| Cc1cc(/C=C2\SC(=S)N(C)C2=O)c(C)n1-c1ccc(O)cc1 | active: 25.1 µM |
| COc1ccc(CCn2c(=N)c(C(=O)NCc3ccco3)cc3c(=O)n4ccccc4nc32)cc1 | inconclusive: 35.5 µM [inhibitor, single point] |
| CCCCN(C(=O)c1ccc([N+](=O)[O-])s1)c1c(N)n(CC(C)C)c(=O)[nH]c1=O | inconclusive: 11.2 µM [inhibitor, single point] |
| Cc1ccc2oc3nc(C)c(C(=O)Nc4cccc(C(F)(F)F)c4)cc3c(=O)c2c1 | inactive |
| COc1cc2ncc(S(=O)(=O)c3ccccc3)c(N3CCC4(CC3)OCCO4)c2cc1OC | inconclusive: 2 µM [inhibitor, partial curve, poor fit] |
| CCCc1noc2c1C(c1cc(Br)ccc1F)C(C#N)=C(N)N2 (stereo not given) | inactive |
| CC(C)CN(C(=O)C1CCCCC1)C1CCS(=O)(=O)C1 (stereo not given) | inconclusive: 35.5 µM [inhibitor, single point] |

10 entries from above, reformatted.
Structure (SMILES)	Potency
Cc1ccccc1C(=O)Nc1ccccc1-c1nnn(CC(=O)Nc2ccc3c(c2)OCCO3)n1	inconclusive: 14.1 µM [inhibitor, single point]
Fc1ccc(-c2csc(=S)[nH]2)cc1	inconclusive: 25.1 µM [inhibitor, partial curve, poor fit]
CCOC(=S)SCc1cn2ccc(C)cc2n1	inconclusive: 35.5 µM [inhibitor, single point]
COc1ccc2[nH]cc(/C=C/C(=O)c3ccccc3)c2c1	inconclusive: 25.1 µM [inhibitor, single point]
O=C(O)/C=C/c1cn(Cc2ccccc2Cl)nc1-c1ccccc1	inactive
Cc1ccc(NC(=O)CO/N=C/c2ccc(N(C)C)cc2)cc1	active: 25.1 µM
Cc1cc(O)c(C(=O)/C=C/c2ccc(Cl)cc2)c(=O)o1	inconclusive: 35.5 µM [inhibitor, single point]
CC[n+]1c(/C=C/Nc2ccccc2)oc2ccccc21	active: 11.2 µM
CCCCN(C(=O)c1ccc([N+](=O)[O-])s1)c1c(N)n(CC(C)C)c(=O)[nH]c1=O	inconclusive: 11.2 µM [inhibitor, single point]
CCCc1noc2c1C(c1cc(Br)ccc1F)C(C#N)=C(N)N2 (stereo not given)	inactive
